Reference: paper PMC1904233
No constants are given. Whether binding was seen depends on the method and setting. Binding seen in cells or lysates may run through a third protein. Some binding calls cover weakened binding; strength is not graded here. Values belong to the molecule of their own block, whether it stands above or below them.

The chains behind the UniProt entries cited, without tags or fusion partners.
UniProt O96621: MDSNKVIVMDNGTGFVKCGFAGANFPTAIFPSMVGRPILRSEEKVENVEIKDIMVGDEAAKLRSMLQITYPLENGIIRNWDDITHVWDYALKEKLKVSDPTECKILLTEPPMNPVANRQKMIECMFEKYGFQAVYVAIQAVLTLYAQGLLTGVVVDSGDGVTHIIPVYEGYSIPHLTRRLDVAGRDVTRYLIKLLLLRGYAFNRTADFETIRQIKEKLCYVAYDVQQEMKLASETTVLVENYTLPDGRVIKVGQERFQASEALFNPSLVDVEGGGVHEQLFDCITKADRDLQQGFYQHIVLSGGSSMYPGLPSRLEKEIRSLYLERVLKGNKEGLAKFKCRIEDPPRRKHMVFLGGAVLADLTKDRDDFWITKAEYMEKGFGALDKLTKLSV
UniProt P42528: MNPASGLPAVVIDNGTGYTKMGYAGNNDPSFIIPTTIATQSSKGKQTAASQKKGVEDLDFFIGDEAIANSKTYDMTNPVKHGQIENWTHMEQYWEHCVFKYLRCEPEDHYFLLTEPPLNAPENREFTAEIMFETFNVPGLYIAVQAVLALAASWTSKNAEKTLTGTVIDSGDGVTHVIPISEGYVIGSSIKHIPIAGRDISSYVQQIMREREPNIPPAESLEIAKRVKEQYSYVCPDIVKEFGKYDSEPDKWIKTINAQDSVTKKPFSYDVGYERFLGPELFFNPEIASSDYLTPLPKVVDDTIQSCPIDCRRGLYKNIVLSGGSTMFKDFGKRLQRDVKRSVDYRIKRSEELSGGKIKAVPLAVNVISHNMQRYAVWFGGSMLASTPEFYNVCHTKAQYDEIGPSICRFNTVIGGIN

Biological target: myc-tagged Dictyostelium replacement Arp2 (Dictyostelium discoideum) (UniProt O96621)
Assay: co-IP; cleared cell lysates (50 mM Tris pH 8.0, 100 mM NaCl, 1 mM EDTA, 1% Triton X-100, protease inhibitors) incubated with mAb 9E10 anti-myc bound to protein G-sepharose, 1 hr at 4°C, 4 washes; blots probed with antibodies to Dictyostelium Arp2, Arp3 and p21-arc

- binding: binds
Molecule: Dictyostelium Arp3 (from UniProt P42528 1-418)

- binding: binds
B1: Dictyostelium p21-arc subunit of the Arp2/3 complex (protein, UniProt O96624 1-174)
chain: MVYHSQFNDESAGFRLVGNVPILPLKTTHKGPAPKGDANSVDIIDEALDLFKANILFRNFEVQGNGDRVLIYLTLYITKCLLKIAPMNKADAEKALFLIAQEQFSIPGESAFPLGGLVTVPNTRDAADTLRQYFTQLRLELGVRLCQRVYAVDPSKANKWWICFSKRKFLNKAL
